Laboratory results from doi:10.64898/2025.12.08.692997 (bioRxiv, 2025).
Results are given in words; binding and its absence hold for the method and conditions named. Some results given as binding are weak or reduced against the parent protein; the word gives no strength. Tags and fused reporters may be left off the sequences shown.

Amino acid sequences for entries named in this document (tags omitted). Residues count along the entry.
UniProt P20827, residues 19-182: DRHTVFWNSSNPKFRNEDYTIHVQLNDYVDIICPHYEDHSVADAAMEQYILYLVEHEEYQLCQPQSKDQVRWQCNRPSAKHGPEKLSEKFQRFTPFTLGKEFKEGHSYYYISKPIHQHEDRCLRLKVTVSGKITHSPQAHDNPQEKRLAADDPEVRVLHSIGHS

T1: Human EphA3-Fc ectodomain (human) (UniProt P29320)
T1 sequence: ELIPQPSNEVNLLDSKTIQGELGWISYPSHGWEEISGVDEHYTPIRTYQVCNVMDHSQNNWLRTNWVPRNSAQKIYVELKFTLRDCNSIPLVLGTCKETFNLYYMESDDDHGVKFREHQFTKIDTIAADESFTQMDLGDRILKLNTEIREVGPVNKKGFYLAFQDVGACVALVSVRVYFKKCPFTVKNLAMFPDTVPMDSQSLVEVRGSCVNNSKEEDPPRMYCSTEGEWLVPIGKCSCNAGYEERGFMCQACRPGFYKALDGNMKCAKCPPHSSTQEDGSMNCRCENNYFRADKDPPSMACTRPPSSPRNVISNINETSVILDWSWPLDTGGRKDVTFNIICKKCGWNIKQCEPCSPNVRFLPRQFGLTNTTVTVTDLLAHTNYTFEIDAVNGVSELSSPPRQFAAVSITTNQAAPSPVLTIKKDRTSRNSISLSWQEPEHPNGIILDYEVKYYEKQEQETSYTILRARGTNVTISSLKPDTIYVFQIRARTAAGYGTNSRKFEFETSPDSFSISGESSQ

T2: Human EphrinB1-Fc ectodomain (human) (UniProt P98172)
T2 sequence: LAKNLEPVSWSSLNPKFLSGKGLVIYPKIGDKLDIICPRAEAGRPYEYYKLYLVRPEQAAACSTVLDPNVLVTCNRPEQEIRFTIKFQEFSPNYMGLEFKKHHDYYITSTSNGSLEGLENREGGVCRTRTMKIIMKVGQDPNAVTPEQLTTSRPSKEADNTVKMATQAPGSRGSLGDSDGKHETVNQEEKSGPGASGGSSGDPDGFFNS

T3: Human EphrinB3-Fc ectodomain (human) (UniProt Q15768)
T3 sequence: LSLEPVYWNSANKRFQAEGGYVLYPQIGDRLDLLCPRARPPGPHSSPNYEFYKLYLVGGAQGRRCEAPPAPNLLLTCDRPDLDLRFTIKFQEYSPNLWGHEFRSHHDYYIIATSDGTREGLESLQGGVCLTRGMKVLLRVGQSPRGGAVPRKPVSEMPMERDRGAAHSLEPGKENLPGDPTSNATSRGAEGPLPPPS

B1: Human EphB4-His ectodomain (domain or fragment, UniProt P54760 16-539)
chain: LEETLLNTKLETADLKWVTFPQVDGQWEELSGLDEEQHSVRTYEVCDVQRAPGQAHWLRTGWVPRRGAVHVYATLRFTMLECLSLPRAGRSCKETFTVFYYESDADTATALTPAWMENPYIKVDTVAAEHLTRKRPGAEATGKVNVKTLRLGPLSKAGFYLAFQDQGACMALLSLHLFYKKCAQLTVNLTRFPETVPRELVVPVAGSCVVDAVPAPGPSPSLYCREDGQWAEQPVTGCSCAPGFEAAEGNTKCRACAQGTFKPLSGEGSCQPCPANSHSNTIGSAVCQCRVGYFRARTDPRGAPCTTPPSAPRSVVSRLNGSSLHLEWSAPLESGGREDLTYALRCRECRPGGSCAPCGGDLTFDPGPRDLVEPWVVVRGLRPDFTYTFEVTALNGVSSLATGPVPFEPVNVTTDREVPPAVSDIRVTRSSPSSLSLAWAVPRAPSGAVLDYEVKYHEKGAEGPSSVRFLKTSENRAELRGLKRGASYLVQVRARSEAGYGPFGQEHHSQTQLDESEGWREQLA

Assays:
Test in all cases: BLI
[1] = molecular target: T1, Human EphA3-Fc ectodomain (human)
[2] = molecular target: T2, Human EphrinB1-Fc ectodomain (human)
[3] = molecular target: T3, Human EphrinB3-Fc ectodomain (human)

| Molecule | binding [1] | binding [2] | binding [3] |
| --- | --- | --- | --- |
| Human EphrinA1-His protein (from UniProt P20827 19-182) (domain or fragment) | binds |  |  |
| B1 |  | no binding (tested: 50 nM) | no binding (tested: 50 nM) |
